This assay addresses PDE10A (UniProt Q9Y233). The assay is described as follows: PDE10 enzyme inhibition, IMAP TR-FRET assay (Example A, MPDE10A7 Enzyme Activity and Inhibition). The format is biochemical. To be noted: approximate IC50 value, Table 10. Background: Time-resolved FRET reads energy transfer from a long-lived donor to a nearby acceptor.

Protein sequences, listed by entry. Tags and fused reporters are not part of them.
UniProt Q9Y233, whole entry: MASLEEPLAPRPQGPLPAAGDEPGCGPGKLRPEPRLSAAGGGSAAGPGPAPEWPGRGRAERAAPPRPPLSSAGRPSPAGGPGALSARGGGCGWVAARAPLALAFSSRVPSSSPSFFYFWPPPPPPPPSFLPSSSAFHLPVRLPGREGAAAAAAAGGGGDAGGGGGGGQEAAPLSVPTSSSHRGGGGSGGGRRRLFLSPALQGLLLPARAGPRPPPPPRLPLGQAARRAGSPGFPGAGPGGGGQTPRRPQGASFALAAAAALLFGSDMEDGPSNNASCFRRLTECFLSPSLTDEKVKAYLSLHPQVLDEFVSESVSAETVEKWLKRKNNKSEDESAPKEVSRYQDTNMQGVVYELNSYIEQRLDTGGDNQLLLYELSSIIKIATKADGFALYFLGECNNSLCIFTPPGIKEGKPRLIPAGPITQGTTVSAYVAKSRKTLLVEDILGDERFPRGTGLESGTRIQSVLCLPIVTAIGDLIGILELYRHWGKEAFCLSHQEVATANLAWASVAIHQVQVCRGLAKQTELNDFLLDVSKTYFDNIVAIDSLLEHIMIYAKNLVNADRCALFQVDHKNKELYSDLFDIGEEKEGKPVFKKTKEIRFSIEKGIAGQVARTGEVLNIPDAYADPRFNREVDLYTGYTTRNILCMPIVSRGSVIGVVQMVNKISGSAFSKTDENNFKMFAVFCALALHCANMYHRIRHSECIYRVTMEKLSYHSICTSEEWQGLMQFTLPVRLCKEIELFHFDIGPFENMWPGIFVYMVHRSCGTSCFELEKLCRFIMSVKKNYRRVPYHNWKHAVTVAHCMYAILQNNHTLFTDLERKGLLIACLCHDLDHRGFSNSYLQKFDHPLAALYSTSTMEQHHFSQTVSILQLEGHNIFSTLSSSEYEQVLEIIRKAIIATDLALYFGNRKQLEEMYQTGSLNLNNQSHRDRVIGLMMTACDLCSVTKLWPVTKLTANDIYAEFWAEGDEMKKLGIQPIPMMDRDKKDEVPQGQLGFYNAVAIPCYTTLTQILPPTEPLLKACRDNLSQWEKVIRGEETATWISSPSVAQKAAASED

One molecule from patent US9174992B2, “Heterobicyclic compounds” (Amgen Inc., priority 2012, dated 2015) can be followed below.

The match of structure and compound is tentative.

One may read the IC50 as the midpoint of a concentration-inhibition curve. Read a high IC50 as weaker potency in that assay. For `COc1nc2cccnc2n1C1CC(C(O)c2nc3ccccc3[nH]2)C1` (stereo not shown), the IC50 was 0.228 nM.
